Measurements from PubChem BioAssay (EPA / NIEHS).
Values joined by “and” are separate entries in the source; they are usually repeats but may differ in a detail not shown here. Identical values can stand only once. Inconclusive means that the source gave no clear call. Such entries were picked first, then a sample of the others. For some assays here: Potencies beside an inconclusive call are fits to weak or partial responses and may not hold up. Active and inactive are the calls of the source. Rule for the calls: active = hit-call score of the fitted dose curve at least 0.9, where 1 is the maximum; inconclusive = response in the unintended direction; inactive = score below 0.9.

Amino acid sequences for entries named in this document (tags omitted). A change or cut given only in a name is not applied to a line headed by its entry.
UniProt Q15722: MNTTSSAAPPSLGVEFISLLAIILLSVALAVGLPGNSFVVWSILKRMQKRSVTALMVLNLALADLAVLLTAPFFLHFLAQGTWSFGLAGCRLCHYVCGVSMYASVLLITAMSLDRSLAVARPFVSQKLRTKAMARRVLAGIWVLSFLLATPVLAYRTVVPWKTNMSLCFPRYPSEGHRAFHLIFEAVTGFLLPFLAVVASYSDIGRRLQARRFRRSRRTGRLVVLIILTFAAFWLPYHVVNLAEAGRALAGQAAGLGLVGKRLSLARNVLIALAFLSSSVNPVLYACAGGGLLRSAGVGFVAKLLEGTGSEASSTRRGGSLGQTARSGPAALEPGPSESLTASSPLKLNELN
UniProt P10275: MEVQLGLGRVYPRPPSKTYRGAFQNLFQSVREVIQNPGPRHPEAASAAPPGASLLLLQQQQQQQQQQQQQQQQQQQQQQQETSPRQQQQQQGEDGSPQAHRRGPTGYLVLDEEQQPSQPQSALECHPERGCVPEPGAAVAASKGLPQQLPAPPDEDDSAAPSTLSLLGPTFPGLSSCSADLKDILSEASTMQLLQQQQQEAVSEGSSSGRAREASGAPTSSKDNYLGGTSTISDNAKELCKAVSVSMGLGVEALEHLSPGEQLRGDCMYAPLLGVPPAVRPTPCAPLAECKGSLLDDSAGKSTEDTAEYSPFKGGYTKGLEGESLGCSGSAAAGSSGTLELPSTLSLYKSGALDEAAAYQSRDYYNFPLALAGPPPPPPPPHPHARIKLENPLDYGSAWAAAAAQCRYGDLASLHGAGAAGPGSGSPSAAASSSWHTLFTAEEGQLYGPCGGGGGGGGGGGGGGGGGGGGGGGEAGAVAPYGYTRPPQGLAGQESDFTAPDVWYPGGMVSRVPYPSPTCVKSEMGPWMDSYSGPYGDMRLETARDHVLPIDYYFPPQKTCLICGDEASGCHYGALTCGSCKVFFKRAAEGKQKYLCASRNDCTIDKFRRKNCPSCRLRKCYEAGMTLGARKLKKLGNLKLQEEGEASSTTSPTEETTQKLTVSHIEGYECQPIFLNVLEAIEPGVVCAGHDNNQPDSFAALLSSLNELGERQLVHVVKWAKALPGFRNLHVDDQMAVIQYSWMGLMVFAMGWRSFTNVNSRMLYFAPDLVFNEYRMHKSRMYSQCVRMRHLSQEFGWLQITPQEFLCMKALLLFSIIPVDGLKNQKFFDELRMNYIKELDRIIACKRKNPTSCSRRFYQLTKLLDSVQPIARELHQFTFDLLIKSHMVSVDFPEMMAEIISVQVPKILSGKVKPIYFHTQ
UniProt P08253: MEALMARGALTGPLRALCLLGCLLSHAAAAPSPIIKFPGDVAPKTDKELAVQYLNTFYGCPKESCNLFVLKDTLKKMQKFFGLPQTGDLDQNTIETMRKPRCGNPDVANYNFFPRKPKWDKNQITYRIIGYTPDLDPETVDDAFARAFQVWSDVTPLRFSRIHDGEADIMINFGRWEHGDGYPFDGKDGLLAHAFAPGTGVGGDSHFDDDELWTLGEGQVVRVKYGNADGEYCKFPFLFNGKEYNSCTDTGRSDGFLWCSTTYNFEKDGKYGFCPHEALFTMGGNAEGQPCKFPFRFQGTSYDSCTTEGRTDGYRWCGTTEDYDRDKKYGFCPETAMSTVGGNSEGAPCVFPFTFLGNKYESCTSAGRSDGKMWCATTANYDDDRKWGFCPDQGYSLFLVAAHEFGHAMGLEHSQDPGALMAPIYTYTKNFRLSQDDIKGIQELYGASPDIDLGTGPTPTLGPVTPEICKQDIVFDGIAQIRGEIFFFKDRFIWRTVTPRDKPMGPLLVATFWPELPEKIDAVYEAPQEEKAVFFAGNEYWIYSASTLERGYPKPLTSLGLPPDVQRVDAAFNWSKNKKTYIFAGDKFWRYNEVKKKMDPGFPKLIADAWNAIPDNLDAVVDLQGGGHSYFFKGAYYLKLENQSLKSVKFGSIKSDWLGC
UniProt Q05209: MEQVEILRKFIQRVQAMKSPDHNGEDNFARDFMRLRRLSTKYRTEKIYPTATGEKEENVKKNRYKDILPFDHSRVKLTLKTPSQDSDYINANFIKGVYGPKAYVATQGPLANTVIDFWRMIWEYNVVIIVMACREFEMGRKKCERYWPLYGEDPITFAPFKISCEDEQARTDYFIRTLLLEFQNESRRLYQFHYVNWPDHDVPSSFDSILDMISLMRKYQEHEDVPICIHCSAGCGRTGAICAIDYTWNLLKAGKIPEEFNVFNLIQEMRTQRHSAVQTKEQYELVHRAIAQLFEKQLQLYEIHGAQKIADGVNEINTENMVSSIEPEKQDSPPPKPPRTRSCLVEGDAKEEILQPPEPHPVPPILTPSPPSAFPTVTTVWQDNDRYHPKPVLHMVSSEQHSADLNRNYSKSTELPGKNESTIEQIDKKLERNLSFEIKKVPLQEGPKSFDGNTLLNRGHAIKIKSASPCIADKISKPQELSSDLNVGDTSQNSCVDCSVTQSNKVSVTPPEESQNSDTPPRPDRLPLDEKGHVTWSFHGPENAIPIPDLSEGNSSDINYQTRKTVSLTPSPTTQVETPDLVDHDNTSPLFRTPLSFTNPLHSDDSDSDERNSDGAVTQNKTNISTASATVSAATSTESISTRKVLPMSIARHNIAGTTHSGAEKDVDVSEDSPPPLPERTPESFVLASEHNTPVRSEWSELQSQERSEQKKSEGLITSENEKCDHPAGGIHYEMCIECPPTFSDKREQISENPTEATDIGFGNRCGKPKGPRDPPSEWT
UniProt P28827, whole entry, looked up: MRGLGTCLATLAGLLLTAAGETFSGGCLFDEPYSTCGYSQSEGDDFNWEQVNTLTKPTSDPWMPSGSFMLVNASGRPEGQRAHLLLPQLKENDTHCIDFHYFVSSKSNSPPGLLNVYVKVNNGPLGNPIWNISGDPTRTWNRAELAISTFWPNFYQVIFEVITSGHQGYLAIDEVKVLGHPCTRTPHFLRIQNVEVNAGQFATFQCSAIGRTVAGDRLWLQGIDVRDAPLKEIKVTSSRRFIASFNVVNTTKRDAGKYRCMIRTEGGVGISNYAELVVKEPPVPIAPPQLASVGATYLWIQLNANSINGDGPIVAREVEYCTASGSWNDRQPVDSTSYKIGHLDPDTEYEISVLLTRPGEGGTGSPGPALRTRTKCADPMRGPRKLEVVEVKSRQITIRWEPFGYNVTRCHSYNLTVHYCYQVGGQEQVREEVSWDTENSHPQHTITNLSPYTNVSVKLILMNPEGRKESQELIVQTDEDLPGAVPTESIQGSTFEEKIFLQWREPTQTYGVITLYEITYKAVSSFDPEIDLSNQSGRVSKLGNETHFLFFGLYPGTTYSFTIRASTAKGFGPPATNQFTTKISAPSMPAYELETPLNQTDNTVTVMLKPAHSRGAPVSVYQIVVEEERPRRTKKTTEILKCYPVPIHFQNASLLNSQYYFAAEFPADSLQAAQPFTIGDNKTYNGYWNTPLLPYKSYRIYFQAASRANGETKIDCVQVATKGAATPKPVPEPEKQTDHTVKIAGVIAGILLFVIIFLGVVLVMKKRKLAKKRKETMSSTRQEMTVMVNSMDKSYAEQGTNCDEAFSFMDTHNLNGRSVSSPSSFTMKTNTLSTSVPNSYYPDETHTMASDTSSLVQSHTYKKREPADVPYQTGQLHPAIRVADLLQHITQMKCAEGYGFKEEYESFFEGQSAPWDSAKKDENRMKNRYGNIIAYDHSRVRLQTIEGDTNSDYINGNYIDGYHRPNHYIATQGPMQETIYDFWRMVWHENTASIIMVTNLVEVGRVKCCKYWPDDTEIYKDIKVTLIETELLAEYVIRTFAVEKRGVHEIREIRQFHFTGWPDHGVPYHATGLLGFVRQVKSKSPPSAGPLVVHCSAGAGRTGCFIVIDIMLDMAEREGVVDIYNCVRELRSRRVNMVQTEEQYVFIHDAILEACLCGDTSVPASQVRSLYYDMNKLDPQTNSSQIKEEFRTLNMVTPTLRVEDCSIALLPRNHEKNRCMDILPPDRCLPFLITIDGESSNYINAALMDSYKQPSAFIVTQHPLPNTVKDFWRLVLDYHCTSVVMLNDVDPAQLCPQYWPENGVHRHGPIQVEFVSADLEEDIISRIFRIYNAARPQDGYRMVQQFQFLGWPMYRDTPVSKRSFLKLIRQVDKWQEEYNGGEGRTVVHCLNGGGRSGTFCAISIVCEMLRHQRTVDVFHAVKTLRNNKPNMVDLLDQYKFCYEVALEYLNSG
UniProt P35916, whole entry, looked up: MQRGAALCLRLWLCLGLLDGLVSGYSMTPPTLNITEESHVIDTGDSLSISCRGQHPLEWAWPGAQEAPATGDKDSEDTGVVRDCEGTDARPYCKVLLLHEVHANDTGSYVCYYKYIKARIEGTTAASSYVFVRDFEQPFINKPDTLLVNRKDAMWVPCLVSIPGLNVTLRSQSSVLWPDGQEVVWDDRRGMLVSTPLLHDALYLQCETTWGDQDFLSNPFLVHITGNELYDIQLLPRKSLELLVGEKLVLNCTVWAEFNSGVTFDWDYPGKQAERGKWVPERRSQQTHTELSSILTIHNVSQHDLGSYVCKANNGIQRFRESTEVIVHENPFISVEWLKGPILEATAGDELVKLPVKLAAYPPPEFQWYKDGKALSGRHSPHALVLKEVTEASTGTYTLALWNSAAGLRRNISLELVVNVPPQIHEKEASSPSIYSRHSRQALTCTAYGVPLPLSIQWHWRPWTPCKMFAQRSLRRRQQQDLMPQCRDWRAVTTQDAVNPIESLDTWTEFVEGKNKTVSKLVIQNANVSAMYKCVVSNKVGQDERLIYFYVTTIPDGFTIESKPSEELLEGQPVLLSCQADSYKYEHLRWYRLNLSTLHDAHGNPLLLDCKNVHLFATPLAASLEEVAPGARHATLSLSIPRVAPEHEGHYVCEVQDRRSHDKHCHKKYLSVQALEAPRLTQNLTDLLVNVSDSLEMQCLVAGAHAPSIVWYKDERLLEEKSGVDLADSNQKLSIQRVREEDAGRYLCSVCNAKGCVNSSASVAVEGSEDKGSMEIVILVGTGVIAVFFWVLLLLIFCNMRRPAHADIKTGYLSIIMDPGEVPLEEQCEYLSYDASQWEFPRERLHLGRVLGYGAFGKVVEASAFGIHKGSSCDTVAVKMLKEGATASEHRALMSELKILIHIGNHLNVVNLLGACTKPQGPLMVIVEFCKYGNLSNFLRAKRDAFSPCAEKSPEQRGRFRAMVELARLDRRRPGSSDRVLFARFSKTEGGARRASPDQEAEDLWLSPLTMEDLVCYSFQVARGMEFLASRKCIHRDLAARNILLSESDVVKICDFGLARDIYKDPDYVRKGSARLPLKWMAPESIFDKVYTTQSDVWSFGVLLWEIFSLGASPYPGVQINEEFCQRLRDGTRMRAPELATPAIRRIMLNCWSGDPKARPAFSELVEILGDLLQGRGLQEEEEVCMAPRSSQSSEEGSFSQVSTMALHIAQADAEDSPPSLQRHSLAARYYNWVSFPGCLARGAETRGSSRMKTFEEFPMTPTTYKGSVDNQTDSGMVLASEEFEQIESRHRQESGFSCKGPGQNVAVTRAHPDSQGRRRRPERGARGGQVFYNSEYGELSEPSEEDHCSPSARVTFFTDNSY
UniProt P10827: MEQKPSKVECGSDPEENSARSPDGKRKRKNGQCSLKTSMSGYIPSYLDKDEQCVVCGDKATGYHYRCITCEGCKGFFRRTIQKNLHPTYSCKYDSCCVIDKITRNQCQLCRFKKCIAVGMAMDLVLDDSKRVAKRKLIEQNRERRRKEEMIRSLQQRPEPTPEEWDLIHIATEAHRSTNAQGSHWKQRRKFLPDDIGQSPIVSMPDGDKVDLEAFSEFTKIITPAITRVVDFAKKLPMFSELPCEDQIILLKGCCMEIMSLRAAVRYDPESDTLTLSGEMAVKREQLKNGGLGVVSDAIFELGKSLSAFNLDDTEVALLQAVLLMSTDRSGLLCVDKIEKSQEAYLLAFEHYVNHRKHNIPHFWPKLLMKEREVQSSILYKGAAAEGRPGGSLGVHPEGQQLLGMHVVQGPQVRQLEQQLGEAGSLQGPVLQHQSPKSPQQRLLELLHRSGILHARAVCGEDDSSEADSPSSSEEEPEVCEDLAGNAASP
UniProt P10828: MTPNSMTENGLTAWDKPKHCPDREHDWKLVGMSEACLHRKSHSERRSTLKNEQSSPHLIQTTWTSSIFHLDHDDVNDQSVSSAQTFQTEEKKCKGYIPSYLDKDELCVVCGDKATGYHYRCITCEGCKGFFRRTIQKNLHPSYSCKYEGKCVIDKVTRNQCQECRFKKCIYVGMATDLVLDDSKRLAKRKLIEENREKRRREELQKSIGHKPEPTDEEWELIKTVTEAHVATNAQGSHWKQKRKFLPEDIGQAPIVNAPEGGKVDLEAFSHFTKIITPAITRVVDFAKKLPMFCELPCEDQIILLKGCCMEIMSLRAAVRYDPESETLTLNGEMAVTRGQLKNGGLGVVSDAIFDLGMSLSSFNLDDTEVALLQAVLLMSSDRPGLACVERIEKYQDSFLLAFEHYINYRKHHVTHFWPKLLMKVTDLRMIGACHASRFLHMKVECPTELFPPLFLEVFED

How the values were obtained:
[1] = molecular target: human Leukotriene B4 Receptor 1 (LTB4-BLT1), LTB4R (gene 1241) (UniProt Q15722); test: NVS_GPCR_hLTB4_BLT1: NovaScreen (NVS) G Protein-Coupled Receptor Assay for human Leukotriene B4 Receptor 1 (LTB4-BLT1) (AID 2283271)
Summary of the method: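 Cell-free human neutrophil receptor preparation, 1 h exposure, radioligand binding read by filter scintillation counting. Single 25 uM duplicate screen, then concentration series topping at 50 uM; binding loss scored against DMSO baseline.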

[2] = molecular target: Ratio of Nucleoli Translocation and Cytoplasm, AR (gene 367) (UniProt P10275); test: UPITT_HCI_U2OS_AR_TIF2_Nucleoli_Cytoplasm_Ratio_Agonist: University of Pittsburgh U2OS Androgen Receptor-Transcriptional Intermediary Factor 2 (AR-TIF2) Agonism High Content Imaging Assay for Ratio of Nucleoli Translocation and Cytoplasm (AID 2284000);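 note: hits raise the red nucleolar to cytoplasm ratio above vehicle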
Summary of the method: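 Human osteosarcoma U2OS line, AR-RFP plus TIF2-GFP; compounds 0.195–50 uM final, 0.5% DMSO. Readout: nucleolar/cytoplasmic RFP ratio by HCI, positive direction vs DMSO baseline.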

[3] = molecular target: human Matrix Metalloproteinase-2 (MMP2), MMP2 (gene 4313) (UniProt P08253); test: NVS_ENZ_hMMP2: NovaScreen (NVS) Enzymatic Assay for human Matrix Metalloproteinase-2 (MMP2) (AID 2283184)
Summary of the method: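 Compounds first screened in duplicate at a single 25 uM, with actives followed up in concentration series. Recombinant human MMP2 cleaves a fluorogenic substrate; fluorescence taken at 1 h, inhibition fitted relative to DMSO.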

[4] = molecular target: human Matrix Metalloproteinase-9 (MMP9), MMP9 (gene 4318) (UniProt P14780); test: NVS_ENZ_hMMP9: NovaScreen (NVS) Enzymatic Assay for human Matrix Metalloproteinase-9 (MMP9) (AID 2283190);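 note: cell-free recombinant MMP9 protease activity read by fluorescent substrate signal; active means inhibition seen as loss of fluorescence signal versus DMSO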
Summary of the method: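 Screening concentration 25 uM, duplicate wells, then dose series for confirmation. Cell-free enzymatic reaction measured by fluorescence intensity 1 h post-dosing; decreased signal versus DMSO taken as activity.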

[5] = molecular target: Tyrosine-protein phosphatase non-receptor type 11 (Homo sapiens) (UniProt Q06124); test: NVS_ENZ_hPTPN11: NovaScreen (NVS) Enzymatic Assay for human Protein Tyrosine Phosphatase Non-receptor Type 11 (PTPN11) (AID 2283202)
Summary of the method: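 Compounds first tested in duplicate at 25 uM; those reaching ~30% inhibition rerun in singleton concentration-response, top 50 uM. Phosphatase activity measured after 0.5 h by fluorescence with mobility-shift separation, relative to DMSO.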

[6] = molecular target: Tyrosine-protein phosphatase non-receptor type 12 (Homo sapiens) (UniProt Q05209); test: NVS_ENZ_hPTPN12: NovaScreen (NVS) Enzymatic Assay for human Protein Tyrosine Phosphatase Non-receptor Type 12 (PTPN12) (AID 2283204)
Summary of the method: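 Single-concentration duplicates (25 uM) preceded singleton concentration-response up to 50 uM for chemicals passing threshold. Cell-free recombinant PTPN12 activity was read 1.33 h after dosing via fluorescence after mobility-shift separation; loss of signal versus DMSO.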

[7] = molecular target: human Protein Tyrosine Phosphatase Receptor Type M (PTPRM), PTPRM (gene 5797) (UniProt P28827); test: NVS_ENZ_hPTPRM: NovaScreen (NVS) Enzymatic Assay for human Protein Tyrosine Phosphatase Receptor Type M (PTPRM) (AID 2283215)
Summary of the method: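 Read-out is fluorescence after electrophoretic separation of substrate and product, taken 1.33 h post-dosing with recombinant enzyme. Compounds screened at 25 uM in duplicate, then concentration series for actives; activity as signal loss relative to DMSO.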

[8] = molecular target: human Vascular Endothelial Growth Factor Receptor 3 (VEGFR3), FLT4 (gene 2324) (UniProt P35916); test: NVS_ENZ_hVEGFR3: NovaScreen (NVS) Enzymatic Assay for human Vascular Endothelial Growth Factor Receptor 3 (VEGFR3) (AID 2283229)
Summary of the method: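 Chemicals first run in duplicate at 25 uM, with actives re-tested in concentration series to a top of 50 uM. Recombinant VEGFR3 activity measured after 1 h via fluorescence with mobility-shift product separation; inhibition fitted relative to DMSO.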

[9] = molecular target: human Endothelin Receptor Type A (ETA), EDNRA (gene 1909) (UniProt P25101); test: NVS_GPCR_hETA: NovaScreen (NVS) G Protein-Coupled Receptor Assay for human Endothelin Receptor Type A (ETA) (AID 2283265)
Summary of the method: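 Binding of radioligand to membrane protein extracted from SH-SY5Y cells was read by filtration and scintillation after 3 h. Compounds were screened at 25 uM in duplicate, with hits followed up in singleton concentration series to 50 uM.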

[10] = ArunA_NOG_NucleusCount: ArunA Biomedical's Neurite Outgrowth (NOG) Assay for Nucleus Count (AID 2283756)
Summary of the method: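 Viable neuron count, from Hoechst nuclei passing size and intensity gates, imaged at 20x on differentiated H9-derived human neurons. Exposure lasted 48 h from seeding; activity was scored relative to DMSO.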

[11] = TOX21_PR_LUC_Followup_Agonist_viability: Viability Assessment in the Tox21 HEK293 Progesterone Receptor (PR) Agonism Luciferase Follow-Up Assay (AID 2283941);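 note: loss of signal means cytotoxicity so actives lower viability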
Summary of the method: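 Cytotoxicity counter-screen: ATP content by CellTiter-Glo luminescence, loss of signal = reduced viability. HEK293-PR-A-luc, 3,000 cells/well, compound exposure 16 h, 37C.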

THRA (gene 7067) = THRA (gene 7067) (UniProt P10827); test: TOX21_TRA_COA_Antagonist_Followup_ratio: Tox21 Thyroid Hormone Receptor alpha Antagonism through Coactivator Recruitment Follow-Up Assay, Ratio (AID 2283953)
Summary of the method: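 We measured antagonism of T3-type coactivator recruitment using a TR-FRET ratio (emission 520 and 495 nm) between a Tb-labelled anti-GST antibody on TRα LBD (2.5 nM) and SRC-2 peptide (200 nM). Activity was scaled between DMSO and T3 wells.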

THRB (gene 7068) [12] = molecular target: THRB (gene 7068) (UniProt P10828); test: TOX21_TRB_COA_Antagonist_Followup_ratio: Tox21 Thyroid Hormone Receptor beta Antagonism through Coactivator Recruitment Follow-Up Assay, Ratio (AID 2283967)
Summary of the method: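 GST-TRb LBD 5.0 nM + 0.10% BSA, compound added; fluorescein-SRC-2 peptide 200 nM, Tb-anti-GST Ab 2 nM. TR-FRET, ex 340 / em 520:495 ratio. Norm: DMSO 0%, T3 100%.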

[13] = VALA_MIGHUV2_WoundArea: VALA Sciences human Umbilical Vein Endothelial Cell Migration (MIGHUV) Assay, Area of Scratch Wound after Recovery (AID 2284316)
Summary of the method: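 Wound-area endpoint read by fluorescence imaging of Hoechst-stained nuclei after a 24 h recovery period following scratch of HUVEC monolayers (9000 cells/well). Chemicals dosed within 30 min post-scratch, triplicate 6-point series, 0.1% DMSO vehicle; Cytochalasin D positive control.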

[14] = system: Thyroperoxidase (TPO), gene 445522; test: CCTE_Simmons_GUA_TPO: CCTE's Guaiacol Assay for Thyroperoxidase (TPO) Inhibition, Simmons Lab (AID 2283750)
Summary of the method: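 Porcine thyroid microsomes (25 ug) in 200mM potassium phosphate, preincubated 30 s at 37C with compound (8 concentrations, 5 nM–87.5 uM) and 35mM guaiacol; 1mM H2O2 starts reaction. Absorbance change at 450nm over first 80 s; loss of signal versus DMSO, three replicates.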

THRB (gene 7068) [15] = molecular target: THRB (gene 7068) (UniProt P10828); test: TOX21_TRB_BLA_Agonist_Followup_ratio: Tox21 Thyroid Hormone Receptor beta Agonism Beta-lactamase (BLA) Follow-Up Assay, Ratio (AID 2283954)
Summary of the method: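 Agonist mode: compounds (11-point, triplicate) incubated 18 h with HEK293T cells carrying GAL4-DBD/human TRβ-LBD and UAS-β-lactamase. Blue/green (460/530 nm) FRET ratio read after 2 h CCF4-AM loading; CellTiter-Glo viability run in the same plates.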

[16] = TOX21_TRB_BLA_Agonist_Followup_viability: Viability Assessment in the Tox21 Thyroid Hormone Receptor beta Agonism Beta-lactamase (BLA) Follow-Up Assay (AID 2283956)
Summary of the method: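 Viability was read as CellTiter-Glo luminescence in the same wells as the TRb-bla agonist read-out. HEK293T GAL4-TRb LBD cells were treated for 18 h (37C, 5% CO2) at 11 concentrations in triplicate. Fits were bidirectional versus DMSO baseline.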

[17] = system: frog Estrogen Receptor (ESR2), gene 100174814; test: ATG_frER2_XSP1: Attagene TRANS-FACTORIAL Multi-Species (XSP1) HepG2 Assay for frog Estrogen Receptor (ESR2) (AID 2283774)
Summary of the method: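 HepG2, transient MRTU transfection (GAL4-UAS reporters, exogenous NR-Gal4 chimeras); 24 h compound exposure; 3 nM 6α-fluorotestosterone co-added; total RNA → RT-PCR → 6-FAM primer extension → HpaI → CE. Positive direction vs DMSO.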

[18] = system: frog Estrogen Receptor (ESR1), gene 398734; test: ATG_frER1_XSP1: Attagene TRANS-FACTORIAL Multi-Species (XSP1) HepG2 Assay for frog Estrogen Receptor (ESR1) (AID 2283777)
Summary of the method: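 Transient MRTU transfection, HepG2 (human liver); 24 h dosing, 3 nM 6α-fluorotestosterone co-added; RNA → RT-PCR → 6-FAM labeling → CE; upward activity vs DMSO.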

[19] = system: zebrafish Estrogen Receptor (ESR2A), gene 317734; test: ATG_zfER2a_XSP1: Attagene TRANS-FACTORIAL Multi-Species (XSP1) HepG2 Assay for zebrafish Estrogen Receptor (ESR2A) (AID 2283778)
Summary of the method: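 Transient transfection of HepG2 (human liver) with MRTU constructs; chemical dosing for 24 h; medium contained 3 nM 6-alpha-fluorotestosterone to partly stimulate AR. RT-PCR/CE fluorescence of reporter transcripts; positive direction vs DMSO.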

O=C(c1ccccc1)c1ccccc1
AC50 [1]: inconclusive: 25 µM

O=C(CCCCCCCCc1cccnc1)N1CCC(C=C(c2ccccc2)c2ccccc2)CC1
AC50 [2]: inconclusive: 45.8 µM

CC(C)c1cccc(C(C)C)c1N1C(=O)c2ccc(O)cc2C1=O
outcome [3]: inactive
AC50 [4]: inconclusive: 25 µM
AC50 [5]: inconclusive: 25 µM
outcome [6]: inactive
AC50 [7]: inconclusive: 25 µM
outcome [8]: inactive
AC50 [9]: inconclusive: 25 µM
outcome [10]: inactive
outcome [11]: inactive
outcome (THRA (gene 7067)): inactive
outcome (THRB (gene 7068) [12]): inactive
AC50 [13]: active: 17.8 µM and active: 74 µM

Cc1ccc(C)c(O)c1C
outcome [14]: inactive

Cc1cccc(C)c1[N+](=O)[O-]
outcome (THRB (gene 7068) [15]): inactive
AC50 [16]: inconclusive: 0.317 µM

CN(C)C(=N)N=C(N)N
AC50 [17]: inconclusive: 100 µM
AC50 [18]: inconclusive: 1.9 µM
AC50 [19]: inconclusive: 11.1 µM
